Data: publication PMC6703689, “The heterogeneous nuclear ribonucleoprotein hnRNPM inhibits RNA virus-triggered innate immunity by antagonizing RNA sensing of RIG-I-like receptors” (PLoS Pathogens, 2019)

What was measured:
[1] = molecular target: helicase-CTD of MDA5 (human); experiment: co-IP; HEK293 cells transiently transfected with the indicated plasmids; NP-40 lysis buffer (20 mM Tris-HCl pH 7.4, 150 mM NaCl, 1 mM EDTA, 1% NP-40); immunoprecipitation and immunoblotting
[2] = molecular target: helicase-CTD of RIG-I (human); experiment: as above

binding [1]: binds | binding [2]: binds
B1: recombinant hnRNPM (pGEX6p-1-GST-hnRNPM) (natural protein, human, UniProt P52272 1-730, looked up)
chain: MAAGVEAAAEVAATEIKMEEESGAPGVPSGNGAPGPKGEGERPAQNEKRKEKNIKRGGNRFEPYANPTKRYRAFITNIPFDVKWQSLKDLVKEKVGEVTYVELLMDAEGKSRGCAVVEFKMEESMKKAAEVLNKHSLSGRPLKVKEDPDGEHARRAMQKVMATTGGMGMGPGGPGMITIPPSILNNPNIPNEIIHALQAGRLGSTVFVANLDYKVGWKKLKEVFSMAGVVVRADILEDKDGKSRGIGTVTFEQSIEAVQAISMFNGQLLFDRPMHVKMDERALPKGDFFPPERPQQLPHGLGGIGMGLGPGGQPIDANHLNKGIGMGNIGPAGMGMEGIGFGINKMGGMEGPFGGGMENMGRFGSGMNMGRINEILSNALKRGEIIAKQGGGGGGGSVPGIERMGPGIDRLGGAGMERMGAGLGHGMDRVGSEIERMGLVMDRMGSVERMGSGIERMGPLGLDHMASSIERMGQTMERIGSGVERMGAGMGFGLERMAAPIDRVGQTIERMGSGVERMGPAIERMGLSMERMVPAGMGAGLERMGPVMDRMATGLERMGANNLERMGLERMGANSLERMGLERMGANSLERMGPAMGPALGAGIERMGLAMGGGGGASFDRAIEMERGNFGGSFAGSFGGAGGHAPGVARKACQIFVRNLPFDFTWKMLKDKFNECGHVLYADIKMENGKSKGCGVVKFESPEVAERACRMMNGMKLSGREIDVRIDRNA
notes: hnRNPM, human; cloned in pGEX-6p-1; No cleavage of GST is told; the MST methods call the same preparation GST-hnRNPM, so the tag was probably still on the protein in the pull-down; source: E. coli BL21, purified (GST resins, eluted with reduced glutathione)

Results are given in words; binding and its absence hold for the method and conditions named. Binding seen in cells or lysates may run through a third protein. A result given as binding can be weak or reduced; the word gives no strength. Sequences can lack the tags named with a protein.
